Laboratory results: PubChem BioAssay AID1259254 (NCATS, 2017)
Shown is one part, drawn at random, of about 59,000 deposited reagents. In the full data, about 1,550 (2.6%) were called active. 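G2 share is only a proxy for re-replication; each gene was hit by three separate siRNAs, and active genes were retested.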 The raw values are shown without normalisation. The numbers tell different reagents against one gene apart. No sequences are given here. The record does not give: the amount of reagent.

- Purpose: 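Gene knock-downs that lead to re-replication, shown by excess G2 DNA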 (primary screen)
- Cell system: human HCT116 colorectal cancer cells
- Reagents: single siRNA against human genes
- Timing: 3 days
- Measured: 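Imaged Hoechst DNA stain sorts each cell into a cycle phase by DNA amount; per plate, G2 fraction set to 0% for non-targeting and 100% for GMNN siRNA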
- Scale: G2 robust z-score and G2 cells, % of GMNN control: higher = more G2 cells, more excess DNA replication; raw share of cells in G2: higher = larger share of cells with G2 DNA content
- Call rule: 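Active siRNAs have a G2 robust z of 5 or more median absolute deviations over the median, which in these data means about 38% or higher of GMNN control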

The first 5 records, ahead of the listing:
| gene knocked down | siRNA no. | G2 robust z-score | G2 cells, % of GMNN control | raw share of cells in G2 (%) | activity call |
| --- | --- | --- | --- | --- | --- |
| NEK4 | 1 | 3.06 | 24.5 | 13.7 | inactive |
| NEK4 | 2 | 2.35 | 19.5 | 12 | inactive |
| NEK4 | 3 | -0.158 | 1.86 | 4.68 | inactive |
| GADD45G | 1 | -0.608 | -1.31 | 4.47 | inactive |
| GADD45G | 2 | -0.504 | -0.575 | 3.9 | inactive |

The list itself, from the start:
| gene knocked down | siRNA no. | G2 robust z-score | G2 cells, % of GMNN control | raw share of cells in G2 (%) | activity call |
| --- | --- | --- | --- | --- | --- |
| NEK4 | 1 | 3.06 | 24.5 | 13.7 | inactive |
| NEK4 | 2 | 2.35 | 19.5 | 12 | inactive |
| NEK4 | 3 | -0.158 | 1.86 | 4.68 | inactive |
| GADD45G | 1 | -0.608 | -1.31 | 4.47 | inactive |
| GADD45G | 2 | -0.504 | -0.575 | 3.9 | inactive |
| GADD45G | 3 | 0.352 | 5.44 | 5.21 | inactive |
| PDCD6P1 | 1 | 2.87 | 23.2 | 12.8 | inactive |
| PDCD6P1 | 2 | 3.36 | 26.6 | 11.9 | inactive |
| PDCD6P1 | 3 | 1.91 | 16.4 | 9.5 | inactive |
| NCOA1 | 1 | 0.926 | 9.48 | 8.59 | inactive |
| NCOA1 | 2 | -0.685 | -1.85 | 3.7 | inactive |
| NCOA1 | 3 | -0.947 | -3.7 | 3.38 | inactive |
| MBNL1-AS1 | 1 | -0.278 | 1.01 | 4.18 | inactive |
| MBNL1-AS1 | 2 | -0.919 | -3.5 | 2.13 | inactive |
| MBNL1-AS1 | 3 | -1.14 | -5.04 | 2.7 | inactive |
| KLK6 | 1 | 0.183 | 4.26 | 7.04 | inactive |
| KLK6 | 2 | 0.935 | 9.55 | 8.29 | inactive |
| KLK6 | 3 | -0.609 | -1.32 | 3.42 | inactive |
| SLC7A13 | 1 | 1.93 | 16.5 | 13.8 | inactive |
| SLC7A13 | 2 | 4.31 | 33.3 | 16.9 | inactive |
| SLC7A13 | 3 | 0.103 | 3.69 | 6.25 | inactive |
| MTIF2 | 1 | 0.318 | 5.21 | 7.37 | inactive |
| MTIF2 | 2 | 0.424 | 5.95 | 5.16 | inactive |
| MTIF2 | 3 | -0.582 | -1.13 | 5.02 | inactive |
| ZNF714 | 1 | 3.78 | 29.5 | 13.3 | inactive |
| ZNF714 | 2 | 0.691 | 7.83 | 5.88 | inactive |
| ZNF714 | 3 | -0.137 | 2 | 4.23 | inactive |
| LINC01348 | 1 | -0.623 | -1.41 | 2.97 | inactive |
| LINC01348 | 2 | -0.606 | -1.3 | 3.16 | inactive |
| LINC01348 | 3 | -0.833 | -2.9 | 2.31 | inactive |
| SDK2 | 1 | 1.92 | 16.5 | 13.4 | inactive |
| SDK2 | 2 | 1.48 | 13.4 | 9.19 | inactive |
| SDK2 | 3 | -1.1 | -4.74 | 1.98 | inactive |
| ZIC4 | 1 | -0.484 | -0.441 | 2.64 | inactive |
| ZIC4 | 2 | -0.945 | -3.68 | 4.25 | inactive |
| ZIC4 | 3 | 0.901 | 9.31 | 6.56 | inactive |
| HUS1B | 1 | 0.121 | 3.82 | 5.61 | inactive |
| HUS1B | 2 | -0.753 | -2.33 | 2.36 | inactive |
| HUS1B | 3 | 0.163 | 4.11 | 4.07 | inactive |
| MBL2 | 1 | -0.309 | 0.794 | 5.22 | inactive |
| MBL2 | 2 | 0.243 | 4.68 | 5.32 | inactive |
| MBL2 | 3 | -0.171 | 1.76 | 3.75 | inactive |
| BTK | 1 | -0.497 | -0.533 | 5.43 | inactive |
| BTK | 2 | -0.794 | -2.62 | 4.53 | inactive |
| BTK | 3 | -0.228 | 1.37 | 4.51 | inactive |
| NELFA | 1 | 1.06 | 10.4 | 9.76 | inactive |
| NELFA | 2 | -0.157 | 1.86 | 4.63 | inactive |
| NELFA | 3 | 0.0635 | 3.41 | 4.55 | inactive |
| ACTRT1 | 1 | 3.07 | 24.6 | 13.7 | inactive |
| ACTRT1 | 2 | 3 | 24.1 | 14.8 | inactive |
| ACTRT1 | 3 | 0.0138 | 3.06 | 7.42 | inactive |
| GTF2H3 | 1 | 0.0765 | 3.51 | 5.49 | inactive |
| GTF2H3 | 2 | 4.37 | 33.7 | 17.3 | inactive |
| GTF2H3 | 3 | 0.18 | 4.23 | 7.3 | inactive |
| CALR3 | 1 | 1.61 | 14.3 | 8 | inactive |
| CALR3 | 2 | 12 | 87.4 | 33.5 | active |
| CALR3 | 3 | 0.637 | 7.45 | 6.14 | inactive |
| TRIM24 | 1 | 0.2 | 4.38 | 6.8 | inactive |
| TRIM24 | 2 | -0.051 | 2.61 | 5.72 | inactive |
| TRIM24 | 3 | -0.903 | -3.38 | 3.5 | inactive |
| RLN3 | 1 | -0.49 | -0.478 | 1.68 | inactive |
| RLN3 | 2 | 1.43 | 13 | 9.31 | inactive |
| RLN3 | 3 | -0.55 | -0.903 | 3.06 | inactive |
| GPM6B | 1 | -0.0898 | 2.34 | 6.4 | inactive |
| GPM6B | 2 | -0.215 | 1.46 | 4.62 | inactive |
| GPM6B | 3 | -0.87 | -3.15 | 2.29 | inactive |
| TFB1M | 1 | 0.748 | 8.23 | 9.69 | inactive |
| TFB1M | 2 | 3.08 | 24.7 | 13.4 | inactive |
| TFB1M | 3 | 0.839 | 8.87 | 7.2 | inactive |
